Results as given in PubChem BioAssay AID540256 (National Center for Advancing Translational Sciences (NCATS), 2011).
“And” between values parts separate entries of the source, which are not always exact repeats. Equal entries are not always repeated. Hit rate of the full screen: of about 300,000 compounds, about 3,700 (1.2%) were called active. This list was built around the results that the source calls inconclusive (neither active nor inactive); the mix of calls is not that of the screen. Calls follow the shape of the full dose curve; tested in HEK293 cells. Potencies beside an inconclusive call are fits to weak or partial responses and may not hold up.

experiment: qHTS for Inhibitors of binding or entry into cells for Lassa Virus; details: Lassa virus pseudotype entry inhibition, cell reporter; activity change, negative = inhibition: at 37.9 µM (top of the series) unless noted; also: nearly all actives have a fitted effect of over 50% in size
% is scaled to controls: 0 for no effect and ±100 for the full control effect; potency is read from the fitted curve at half-maximal effect.

| Compound | activity change, negative = inhibition | Potency |
| --- | --- | --- |
| CC1CN(CCOc2ccc(Cl)cc2Cl)CC(C)O1 (stereo not given) | inactive: 4.03% | – |
| CCOC(=O)c1cnc2ccc(C(=O)OC)cc2c1Nc1ccc(OCc2ccccc2Cl)cc1 | – | inconclusive: 35.5 µM [activator, single point] |
| c1ccc(Oc2nc(N3CCOCC3)nc(N3CCOCC3)n2)cc1 | – | inconclusive: 23.1 µM [inhibitor, single point] |
| COc1cccc(N2CCN(C(=O)c3ccc4nc(N5CCC(C)CC5)sc4c3)CC2)c1 | – | inconclusive: 6.31 µM [activator, partial curve, poor fit] |
| CCN(CC)C(=O)Cn1ncc2c([nH]c3ccccc32)c1=O | inactive: 12.4% [at 46.1 µM] | – |
| CCOc1ccc(NC(=O)CC2C(=O)N(c3ccc(OC)cc3)C(=O)N2CCC2=CCCCC2)cc1 (stereo not given) | inactive: -24.4% [at 46.1 µM] | – |
| O=CNn1cnc2c(oc3nc(-c4ccccc4)cc(-c4ccco4)c32)c1=O | inactive: -1.41% | – |
| S=C1N(c2ccccc2)CN(CCN2CCOCC2)CN1c1ccccc1 | – | inconclusive: 15.8 µM [activator, partial curve, poor fit] |
| CNc1ncc(C(=O)c2ccc(F)cc2)s1 | inactive: 9.2% [at 46.1 µM] | – |
| CCc1ccc(/C=C2\SC(=S)N(CCCC(=O)Nc3ccccn3)C2=O)cc1 | – | active: 11.2 µM |
| CCOc1ccc(N(CC(=O)NCc2ccc(F)cc2)C(=O)CCC(=O)Nc2nccs2)cc1 | – | inconclusive: 8.91 µM [inhibitor, partial curve, poor fit] |
| O=C(CSc1nnnn1-c1ccccc1)Nc1ncc(Cc2ccccc2Cl)s1 | inactive: 14% | – |
| CCOC(=O)c1c(C)[nH]c(C(=O)CSc2ccccc2)c1C | – | active: 17.8 µM |
| COc1ccccc1C=NNc1nc(C)cc(=O)[nH]1 | inactive: 7.6% [at 46.1 µM] | – |
| CC(C)Oc1ccc(CNC(=O)c2cnc3sc(N4CCCC4)nn3c2=O)cc1 | – | inconclusive: 3.98 µM [inhibitor, partial curve, poor fit] |
| O=C(NCc1ccccc1Cl)C1=Cc2cc(Br)ccc2OC1 | – | inconclusive: 14.1 µM [inhibitor, single point] |
| Cc1ccc2[nH]c(=O)c(CN(CCCN(C)C)C(=O)Nc3ccc(Cl)cc3)cc2c1 | – | inconclusive: 29.1 µM [inhibitor, single point] |
| O=C(Nc1nc2ccccc2[nH]1)c1cccc(F)c1 | – | inconclusive: 3.98 µM [inhibitor, partial curve, poor fit] |
| COc1cc(Cl)c(C)cc1NC(=O)CSc1cc(Cl)ccc1Cl | – | inconclusive: 0.282 µM [inhibitor, full curve, poor fit] |
| COC(=O)COc1ccc(C(=O)Cn2c(NCCCO)nc3ccccc32)cc1 | – | inconclusive: 0.631 µM [inhibitor, full curve, poor fit] |
| O=C(COC(=O)c1c2c(nc3ccccc13)/C(=C\c1cccs1)CCC2)Nc1ccccc1 | – | inconclusive: 10 µM [inhibitor, partial curve, poor fit] |
| CCC(=Nc1ccc2c(c1)CCC2)c1c(O)n(-c2ccc(OC)cc2)c(=O)[nH]c1=O | – | inconclusive: 0.251 µM [inhibitor, full curve, poor fit] |
| Cc1ccccc1NC(=O)CSc1ccc(-c2ccccn2)nn1 | – | inactive and inconclusive: 11.2 µM [inhibitor, partial curve] |

| Compound | activity change, negative = inhibition | Potency |
| --- | --- | --- |
| COc1ccccc1-c1nn(CCC(=O)Nc2ccc(C)cc2)c2nc(C)cc(C)c12 | inactive: -7.84% [at 46.1 µM] | – |
| O=C(CSc1nc2[nH]ncc2c(=O)n1-c1ccccc1)c1ccc2c(c1)OCCO2 | – | inconclusive: 15.8 µM [inhibitor, single point] |
| O=C(CC(c1ccccc1)c1ccccc1O)NCc1ccccc1 (stereo not given) | – | inconclusive: 28.2 µM [inhibitor, single point] |
| c1ccc(-c2ccn3nnnc3n2)cc1 | inactive: -5.48% | – |
| CCC1=NN2C(=N)/C(=C\c3cccn3-c3ccc(Cl)cc3)C(=O)N=C2S1 | inactive: -11.7% | – |
| Cc1c(CN(C)C)c2c(n1Cc1ccccc1)C(=O)c1ccc(Br)cc1-2 | – | inconclusive: 29.1 µM [inhibitor, single point] |
| COCCSc1nc(N)c2c3c(sc2n1)CN(C)CC3 | inactive: 23.2% [at 46.1 µM] | – |
| O=C(NN=C(c1ccccc1)c1ccccn1)c1ccccc1 | – | inconclusive: 7.94 µM [inhibitor, partial curve, poor fit] |
| Nc1ncc(Br)cc1S(=O)(=O)Nc1cc(C(F)(F)F)cc(C(F)(F)F)c1 | – | active: 14.1 µM |
| Cc1ccc(C(=O)NC2CCCCC2)cc1 | inactive: 3.89% | – |
| CC(C)N1CCc2c(sc(NC(=O)CCS(=O)(=O)c3ccccc3)c2C#N)C1 | inactive: 9.63% | – |
| COc1ccc(CCNc2oc(COc3ccccc3)nc2C#N)cc1 | – | inconclusive: 20 µM [inhibitor, partial curve, poor fit] |
| COc1ccccc1Nc1nn2c(=O)c3ccc(C(=O)NCCc4ccccc4)cc3nc2s1 | – | inconclusive: 2.24 µM [inhibitor, full curve, poor fit] |
| COc1ccc(-c2c3c([nH]c(=S)c2C#N)CCC3)cc1 | inactive: 10.8% | – |
| O=C(Nc1ccn(Cc2c(F)c(F)cc(F)c2F)n1)c1ccc(COc2ccccc2Cl)cc1 | – | inconclusive: 25.9 µM [inhibitor, partial curve, poor fit] |
| Cc1ccc(N2CCN(c3nc4ccc(C(=O)c5ccccc5)cc4n4cnnc34)CC2)c(C)c1 | – | inconclusive: 39.8 µM [inhibitor, partial curve, poor fit] |
| CCC(=O)NC(c1ccccc1)c1nc2ccccc2[nH]1 (stereo not given) | – | inconclusive: 29.1 µM [activator, single point] |
| O=C(Oc1ccc(Cl)cc1)N1CCOCC1 | – | inconclusive: 35.5 µM [inhibitor, single point] |
| Cc1ccc(-c2nnc3ccccc3c2C(=O)Nc2ccc(F)cc2)cc1 | – | inconclusive: 5.62 µM [activator, single point] |
| COc1ccc(C(C)=O)cc1CSc1nc(Nc2ccc(F)c(F)c2)c2ccccc2n1 | inactive: -27.1% [at 46.1 µM] | – |
| CN(C)C(=O)COC(=O)/C=C/c1ccccc1[N+](=O)[O-] | inactive: 3.88% | – |
| O=C(Cc1coc2ccc3ccccc3c12)Nc1nccs1 | – | inconclusive: 35.5 µM [inhibitor, single point] |

Some values from above.
In activity change, negative = inhibition, O=CNn1cnc2c(oc3nc(-c4ccccc4)cc(-c4ccco4)c32)c1=O is entered as inactive: -1.41%
In Potency, COc1cc(Cl)c(C)cc1NC(=O)CSc1cc(Cl)ccc1Cl is entered as inconclusive: 0.282 µM [inhibitor, full curve, poor fit]
